Measured values published in PMC12059209.
These are yes or no findings as the source states them, for the method shown. In cells and extracts the contact can be indirect. Some binding calls cover weakened binding; strength is not graded here. For part of these data: Tags and fused reporters may be left off the sequences shown.

Amino acid sequences for entries named in this document (tags omitted).
UniProt P21127: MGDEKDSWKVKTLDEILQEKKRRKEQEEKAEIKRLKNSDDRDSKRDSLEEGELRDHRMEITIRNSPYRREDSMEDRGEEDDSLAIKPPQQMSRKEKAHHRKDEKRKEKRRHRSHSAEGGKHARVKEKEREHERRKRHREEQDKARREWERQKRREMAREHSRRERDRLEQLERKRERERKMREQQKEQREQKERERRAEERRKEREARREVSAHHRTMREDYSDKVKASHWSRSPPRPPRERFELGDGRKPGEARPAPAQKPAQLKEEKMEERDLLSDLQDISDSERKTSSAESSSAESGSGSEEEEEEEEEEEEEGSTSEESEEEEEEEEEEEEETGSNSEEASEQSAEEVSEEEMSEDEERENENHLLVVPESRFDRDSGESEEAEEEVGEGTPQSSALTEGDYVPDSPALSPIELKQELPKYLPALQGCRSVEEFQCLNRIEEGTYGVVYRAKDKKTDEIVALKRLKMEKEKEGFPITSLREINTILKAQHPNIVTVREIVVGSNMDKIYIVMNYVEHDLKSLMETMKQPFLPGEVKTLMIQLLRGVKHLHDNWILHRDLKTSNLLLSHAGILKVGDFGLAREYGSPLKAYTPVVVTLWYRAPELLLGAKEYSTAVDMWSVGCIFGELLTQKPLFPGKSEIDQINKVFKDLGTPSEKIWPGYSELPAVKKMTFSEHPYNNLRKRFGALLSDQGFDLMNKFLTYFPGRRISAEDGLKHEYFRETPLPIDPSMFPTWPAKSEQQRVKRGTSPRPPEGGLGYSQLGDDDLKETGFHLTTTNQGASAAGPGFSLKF

What was measured:
[1] = molecular target: T1, Flag-USP22 (ubiquitin-specific protease 22, full length) (UniProt Q9UPT9); experiment: co-IP; HEK-293FT cells transfected with Flag-USP22 or its truncations; IP with anti-Flag, blot with anti-CDK11B; 50 mM Tris-HCl pH 7.4, 150 mM NaCl, 1 mM EDTA, 0.5% Triton X-100, overnight at 4°C
T1 sequence: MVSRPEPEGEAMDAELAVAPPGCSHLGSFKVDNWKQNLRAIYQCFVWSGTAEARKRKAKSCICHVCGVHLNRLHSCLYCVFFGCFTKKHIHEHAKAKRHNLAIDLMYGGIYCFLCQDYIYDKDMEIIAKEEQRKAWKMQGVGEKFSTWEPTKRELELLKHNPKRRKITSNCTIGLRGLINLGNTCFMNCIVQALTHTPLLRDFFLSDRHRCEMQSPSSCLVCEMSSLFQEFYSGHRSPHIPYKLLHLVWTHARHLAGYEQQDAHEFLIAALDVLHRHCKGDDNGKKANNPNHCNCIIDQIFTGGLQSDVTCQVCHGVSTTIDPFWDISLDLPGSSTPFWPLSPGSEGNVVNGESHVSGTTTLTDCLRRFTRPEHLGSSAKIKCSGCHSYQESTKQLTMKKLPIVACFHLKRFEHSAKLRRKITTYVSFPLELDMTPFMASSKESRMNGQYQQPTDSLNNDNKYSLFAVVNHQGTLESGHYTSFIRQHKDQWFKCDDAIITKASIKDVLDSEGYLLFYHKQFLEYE

Flag-USP22 (161-525 aa) = molecular target: T2, Flag-USP22 (161-525 aa) (UniProt Q9UPT9); experiment: as above
T2 sequence: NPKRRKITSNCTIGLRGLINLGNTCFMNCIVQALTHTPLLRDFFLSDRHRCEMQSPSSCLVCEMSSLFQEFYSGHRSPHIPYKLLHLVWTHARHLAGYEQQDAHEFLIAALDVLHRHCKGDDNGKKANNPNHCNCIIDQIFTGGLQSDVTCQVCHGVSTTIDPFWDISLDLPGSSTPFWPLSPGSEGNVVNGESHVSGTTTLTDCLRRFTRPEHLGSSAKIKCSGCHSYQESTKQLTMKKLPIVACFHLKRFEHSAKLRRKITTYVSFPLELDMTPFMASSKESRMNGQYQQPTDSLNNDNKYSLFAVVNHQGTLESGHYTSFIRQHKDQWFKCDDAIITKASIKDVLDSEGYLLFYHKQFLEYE

Flag-USP22 (1-160 aa) = molecular target: T3, Flag-USP22 (1-160 aa) (UniProt Q9UPT9); experiment: as above
T3 sequence: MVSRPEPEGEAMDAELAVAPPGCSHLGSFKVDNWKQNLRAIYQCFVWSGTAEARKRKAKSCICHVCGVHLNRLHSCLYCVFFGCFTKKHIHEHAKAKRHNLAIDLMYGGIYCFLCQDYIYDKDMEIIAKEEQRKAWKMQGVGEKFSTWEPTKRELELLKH

[2] = molecular target: T4, ubiquitin-specific protease 22 (USP22), endogenous (human (endogenous in HEK-293FT, HepG2, Hep3B, Huh7)) (UniProt Q9UPT9); experiment: co-IP; endogenous proteins in HepG2, Hep3B and Huh7 lysates; IP with anti-USP22 and blot with anti-CDK11B, and IP with anti-CDK11B and blot with anti-USP22; 50 mM Tris-HCl pH 7.4, 150 mM NaCl, 1 mM EDTA, 0.5% Triton X-100, overnight at 4°C
T4 sequence: T1 sequence

[3] = molecular target: cyclin-dependent kinase 11B (CDK11B), endogenous (human (endogenous in HEK-293FT, HepG2, Hep3B, Huh7)) (UniProt P21127); experiment: as above
His-CDK11B = His-CDK11B (UniProt P21127); experiment: co-IP; HEK-293FT cells transfected with His-CDK11B; IP with anti-His, blot with anti-USP22; 50 mM Tris-HCl pH 7.4, 150 mM NaCl, 1 mM EDTA, 0.5% Triton X-100, overnight at 4°C

Measured: binding

cyclin-dependent kinase 11B (CDK11B), endogenous (from UniProt P21127 1-795)
binds: [1] | Flag-USP22 (161-525 aa) | Flag-USP22 (1-160 aa) | [2]

B1: ubiquitin-specific protease 22 (USP22), endogenous (enzyme, UniProt Q9UPT9 1-525)
chain: T1 sequence
binds: [3] | His-CDK11B
